# According to the supplement of paper PMC8728848:
# The other results are listed elsewhere or left out.
# Legend:
# Experiment in all cases: glycan array binding signal (z-score within array); higher = stronger binding
# Settings in all cases: glycan notation: IUPAC condensed, linker removed
# [1] = target: Fuc(a1-3)[Gal3S(b1-4)]GlcNAc
# Summary of the method: (§1)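 The binding signal is a Z-score computed within each array and averaged over linkers. Arrays of the same protein sequence at different concentrations or buffers were also averaged together. Data originate from 3228 arrays in the Consortium for Functional Glycomics database, kept only where the protein sequence was available.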
# [2] = target: Fuc(a1-3)[Gal3S(b1-4)]GlcNAc6S
# Summary of the method: as §1
# [3] = target: Fuc(a1-3)[GalNAc(b1-4)]GlcNAc
# Summary of the method: as §1
# Fuc(a1-4)GlcNAc = target: Fuc(a1-4)GlcNAc
# Summary of the method: as §1
# Fuc(b1-3)GlcNAc = target: Fuc(b1-3)GlcNAc
# Summary of the method: as §1
# Gal(a1-2)Gal = target: Gal(a1-2)Gal
# Summary of the method: as §1
# Gal(a1-3)Gal = target: Gal(a1-3)Gal
# Summary of the method: as §1
# Gal(a1-3)Gal(b1-3)GlcNAc = target: Gal(a1-3)Gal(b1-3)GlcNAc
# Summary of the method: as §1
# [4] = target: Gal(a1-3)Gal(b1-3)GlcNAc(b1-2)Man(a1-3)[Gal(a1-3)Gal(b1-3)GlcNAc(b1-2)Man(a1-6)]Man(b1-4)GlcNAc(b1-4)GlcNAc
# Summary of the method: as §1
# [5] = target: Gal(a1-3)Gal(b1-3)[Fuc(a1-4)]GlcNAc(b1-2)Man(a1-3)[Gal(a1-3)Gal(b1-3)[Fuc(a1-4)]GlcNAc(b1-2)Man(a1-6)]Man(b1-4)GlcNAc(b1-4)GlcNAc
# Summary of the method: as §1
# Gal(a1-3)Gal(b1-4)Glc = target: Gal(a1-3)Gal(b1-4)Glc
# Summary of the method: as §1
# Gal(a1-3)Gal(b1-4)GlcNAc = target: Gal(a1-3)Gal(b1-4)GlcNAc
# Summary of the method: as §1
# [6] = target: Gal(a1-3)Gal(b1-4)GlcNAc(b1-3)GalNAc
# Summary of the method: as §1
# [7] = target: Gal(a1-3)Gal(b1-4)[Fuc(a1-3)]GlcNAc
# Summary of the method: as §1
# [8] = target: Gal(a1-3)Gal(b1-4)[Fuc(a1-3)]GlcNAc(b1-2)Man(a1-3)[Gal(a1-3)Gal(b1-4)[Fuc(a1-3)]GlcNAc(b1-2)Man(a1-6)]Man(b1-4)GlcNAc(b1-4)GlcNAc
# Summary of the method: as §1
# Gal(a1-3)GalNAc = target: Gal(a1-3)GalNAc
# Summary of the method: as §1
# [9] = target: Gal(a1-3)[Gal(a1-4)]Gal(b1-4)GlcNAc
# Summary of the method: as §1
# [10] = target: Gal(a1-4)Gal(b1-3)GlcNAc(b1-2)Man(a1-3)[Gal(a1-4)Gal(b1-3)GlcNAc(b1-2)Man(a1-6)]Man(b1-4)GlcNAc(b1-4)GlcNAc
# Summary of the method: as §1
# Gal(a1-4)Gal(b1-4)Glc = target: Gal(a1-4)Gal(b1-4)Glc
# Summary of the method: as §1
# Gal(a1-4)Gal(b1-4)GlcNAc = target: Gal(a1-4)Gal(b1-4)GlcNAc
# Summary of the method: as §1
# [11] = target: Gal(a1-4)Gal(b1-4)GlcNAc(b1-2)Man(a1-3)[Gal(a1-4)Gal(b1-4)GlcNAc(b1-2)Man(a1-6)]Man(b1-4)GlcNAc(b1-4)GlcNAc
# Summary of the method: as §1
# [12] = target: Gal(a1-4)Gal(b1-4)GlcNAc(b1-3)Gal(b1-4)Glc
# Summary of the method: as §1
# Gal(a1-4)GlcNAc = target: Gal(a1-4)GlcNAc
# Summary of the method: as §1
# Gal(a1-6)Glc = target: Gal(a1-6)Glc
# Summary of the method: as §1
# Gal(b1-2)Gal = target: Gal(b1-2)Gal
# Summary of the method: as §1
# Gal(b1-3)Gal = target: Gal(b1-3)Gal
# Summary of the method: as §1
# Gal(b1-3)Gal(b1-4)GlcNAc = target: Gal(b1-3)Gal(b1-4)GlcNAc
# Summary of the method: as §1
# [13] = target: Gal(b1-3)Gal(b1-4)GlcNAc(b1-2)Man(a1-3)[Gal(b1-3)Gal(b1-4)GlcNAc(b1-2)Man(a1-6)]Man(b1-4)GlcNAc(b1-4)GlcNAc
# Summary of the method: as §1
# Gal(b1-3)GalNAc = target: Gal(b1-3)GalNAc
# Summary of the method: as §1
# [14] = target: Gal(b1-3)GalNAc(a1-3)[Fuc(a1-2)]Gal(b1-4)Glc
# Summary of the method: as §1
# [15] = target: Gal(b1-3)GalNAc(a1-3)[Fuc(a1-2)]Gal(b1-4)GlcNAc
# Summary of the method: as §1
# [16] = target: Gal(b1-3)GalNAc(b1-3)Gal(a1-4)Gal(b1-4)Glc
# Summary of the method: as §1
# [17] = target: Gal(b1-3)GalNAc(b1-4)Gal(b1-4)Glc
# Summary of the method: as §1
# [18] = target: Gal(b1-3)GalNAc(b1-4)[Neu5Ac(a2-3)]Gal(b1-4)Glc
# Summary of the method: as §1
# Gal(b1-3)GlcNAc = target: Gal(b1-3)GlcNAc
# Summary of the method: as §1
# [19] = target: Gal(b1-3)GlcNAc(a1-6)Gal(b1-4)GlcNAc
# Summary of the method: as §1
# [20] = target: Gal(b1-3)GlcNAc(b1-2)Man(a1-3)[Gal(b1-3)GlcNAc(b1-2)Man(a1-6)]Man(b1-4)GlcNAc(b1-4)GlcNAc
# Summary of the method: as §1
# [21] = target: Gal(b1-3)GlcNAc(b1-2)Man(a1-3)[Gal(b1-3)GlcNAc(b1-2)Man(a1-6)]Man(b1-4)GlcNAc(b1-4)[Fuc(a1-6)]GlcNAc
# Summary of the method: as §1
# [22] = target: Gal(b1-3)GlcNAc(b1-3)Gal(b1-3)GlcNAc
# Summary of the method: as §1
# [23] = target: Gal(b1-3)GlcNAc(b1-3)Gal(b1-4)Glc
# Summary of the method: as §1
# [24] = target: Gal(b1-3)GlcNAc(b1-3)Gal(b1-4)GlcNAc
# Summary of the method: as §1
# [25] = target: Gal(b1-3)GlcNAc(b1-3)Gal(b1-4)GlcNAc(b1-6)[Gal(b1-3)GlcNAc(b1-3)]Gal(b1-4)Glc
# Summary of the method: as §1
# [26] = target: Gal(b1-3)GlcNAc(b1-3)Gal(b1-4)[Fuc(a1-3)]GlcNAc(b1-6)[Gal(b1-3)GlcNAc(b1-3)]Gal(b1-4)Glc
# Summary of the method: as §1
# [27] = target: Gal(b1-3)GlcNAc(b1-3)GalNAc
# Summary of the method: as §1
# [28] = target: Gal(b1-3)GlcNAc(b1-6)Gal(b1-4)GlcNAc
# Summary of the method: as §1
# [29] = target: Gal(b1-3)[Fuc(a1-4)]GlcNAc
# Summary of the method: as §1
# [30] = target: Gal(b1-3)[Fuc(a1-4)]GlcNAc(b1-2)Man(a1-3)[Gal(b1-3)[Fuc(a1-4)]GlcNAc(b1-2)Man(a1-6)]Man(b1-4)GlcNAc(b1-4)GlcNAc
# Summary of the method: as §1
# [31] = target: Gal(b1-3)[Fuc(a1-4)]GlcNAc(b1-2)Man(a1-3)[Gal(b1-3)[Fuc(a1-4)]GlcNAc(b1-2)Man(a1-6)]Man(b1-4)GlcNAc(b1-4)[Fuc(a1-6)]GlcNAc
# Summary of the method: as §1
# [32] = target: Gal(b1-3)[Fuc(a1-4)]GlcNAc(b1-3)Gal(b1-3)[Fuc(a1-4)]GlcNAc
# Summary of the method: as §1
# [33] = target: Gal(b1-3)[Fuc(a1-4)]GlcNAc(b1-3)Gal(b1-4)GlcNAc
# Summary of the method: as §1
# [34] = target: Gal(b1-3)[Fuc(a1-4)]GlcNAc(b1-3)Gal(b1-4)[Fuc(a1-3)]GlcNAc
# Summary of the method: as §1
# [35] = target: Gal(b1-3)[GlcNAc(b1-6)]GalNAc
# Summary of the method: as §1
# [36] = target: Gal(b1-3)[Neu5Ac(a2-6)]GalNAc
# Summary of the method: as §1
# [37] = target: Gal(b1-3)[Neu5Ac(a2-6)]GlcNAc(b1-6)Gal(b1-4)Glc
# Summary of the method: as §1
# [38] = target: Gal(b1-3)[Neu5Ac(b2-6)]GalNAc
# Summary of the method: as §1
# [39] = target: Gal(b1-4)GalNAc(a1-3)[Fuc(a1-2)]Gal(b1-4)GlcNAc
# Summary of the method: as §1
# [40] = target: Gal(b1-4)GalNAc(b1-3)[Fuc(a1-2)]Gal(b1-4)GlcNAc
# Summary of the method: as §1
# Gal(b1-4)Glc = target: Gal(b1-4)Glc
# Summary of the method: as §1
# Gal(b1-4)Glc6S = target: Gal(b1-4)Glc6S
# Summary of the method: as §1
# Gal(b1-4)GlcNAc = target: Gal(b1-4)GlcNAc
# Summary of the method: as §1
binder,measurement,setting,value
"SRS2 (Toxoplasma gondii), O15695 (protein) MATRASLARQKTGAACLAVLTASPSVVAAKPWKRWVGVSVILASAFAVGVSAGPPYRYEPEKFTCRPKKGILSQWVSLLYQVQHNITFACEEATPVPTTLISEEHGLMVCAENMTPEECEANPAPLSAFLPGATKEWVTGDSVLTGLKISVPESQYPANAKSFRVGCRHNTKTGNTCMLTIHVEPRDPAVERQEARCSYTENSTLPKIFVTKDSNTMTLACGPHGAPMPESYTENYCSTPDTCDEKPFTSVIPGYLSKWFFGDPKSPLGARVRIPPEQIPSSPQINYFGCTGPTEGEGPKYNCTVPVPLGGGDPSEGSRPGGGSGGGKRGGGQGGGGSLAGFDFRQGSARHSLPSRMALSASALLAMTALAY",glycan array binding signal (z-score),[1],0.388
same,glycan array binding signal (z-score),[2],-0.197
same,glycan array binding signal (z-score),[3],0.377
same,glycan array binding signal (z-score),Fuc(a1-4)GlcNAc,-0.086
same,glycan array binding signal (z-score),Fuc(b1-3)GlcNAc,0.872
same,glycan array binding signal (z-score),Gal(a1-2)Gal,-0.741
same,glycan array binding signal (z-score),Gal(a1-3)Gal,-0.417
same,glycan array binding signal (z-score),Gal(a1-3)Gal(b1-3)GlcNAc,0.384
same,glycan array binding signal (z-score),[4],0.538
same,glycan array binding signal (z-score),[5],0.688
same,glycan array binding signal (z-score),Gal(a1-3)Gal(b1-4)Glc,-0.428
same,glycan array binding signal (z-score),Gal(a1-3)Gal(b1-4)GlcNAc,0.159
same,glycan array binding signal (z-score),[6],-0.46
same,glycan array binding signal (z-score),[7],-0.99
same,glycan array binding signal (z-score),[8],-0.148
same,glycan array binding signal (z-score),Gal(a1-3)GalNAc,0.369
same,glycan array binding signal (z-score),[9],0.045
same,glycan array binding signal (z-score),[10],-0.744
same,glycan array binding signal (z-score),Gal(a1-4)Gal(b1-4)Glc,0.631
same,glycan array binding signal (z-score),Gal(a1-4)Gal(b1-4)GlcNAc,-0.049
same,glycan array binding signal (z-score),[11],-0.206
same,glycan array binding signal (z-score),[12],-0.291
same,glycan array binding signal (z-score),Gal(a1-4)GlcNAc,0.399
same,glycan array binding signal (z-score),Gal(a1-6)Glc,-0.257
same,glycan array binding signal (z-score),Gal(b1-2)Gal,0.077
same,glycan array binding signal (z-score),Gal(b1-3)Gal,-0.894
same,glycan array binding signal (z-score),Gal(b1-3)Gal(b1-4)GlcNAc,-1.45
same,glycan array binding signal (z-score),[13],0.158
same,glycan array binding signal (z-score),Gal(b1-3)GalNAc,-0.265
same,glycan array binding signal (z-score),[14],0.487
same,glycan array binding signal (z-score),[15],-0.437
same,glycan array binding signal (z-score),[16],0.365
same,glycan array binding signal (z-score),[17],0.16
same,glycan array binding signal (z-score),[18],-0.024
same,glycan array binding signal (z-score),Gal(b1-3)GlcNAc,-0.506
same,glycan array binding signal (z-score),[19],-0.133
same,glycan array binding signal (z-score),[20],-0.395
same,glycan array binding signal (z-score),[21],1.18
same,glycan array binding signal (z-score),[22],-0.3
same,glycan array binding signal (z-score),[23],0.39
same,glycan array binding signal (z-score),[24],-0.649
same,glycan array binding signal (z-score),[25],-0.73
same,glycan array binding signal (z-score),[26],-0.534
same,glycan array binding signal (z-score),[27],0.023
same,glycan array binding signal (z-score),[28],-1.15
same,glycan array binding signal (z-score),[29],-0.246
same,glycan array binding signal (z-score),[30],1.03
same,glycan array binding signal (z-score),[31],-0.006
same,glycan array binding signal (z-score),[32],0.13
same,glycan array binding signal (z-score),[33],-0.495
same,glycan array binding signal (z-score),[34],0.915
same,glycan array binding signal (z-score),[35],-0.089
same,glycan array binding signal (z-score),[36],-0.032
same,glycan array binding signal (z-score),[37],-0.026
same,glycan array binding signal (z-score),[38],-0.207
same,glycan array binding signal (z-score),[39],0.163
same,glycan array binding signal (z-score),[40],-0.802
same,glycan array binding signal (z-score),Gal(b1-4)Glc,-0.395
same,glycan array binding signal (z-score),Gal(b1-4)Glc6S,-0.35
same,glycan array binding signal (z-score),Gal(b1-4)GlcNAc,-0.427

# Given with bars between the fields: entries from further up.
binder | measurement | setting | value
SRS2 (Toxoplasma gondii), O15695 (protein) MATRASLARQKTGAACLAVLTASPSVVAAKPWKRWVGVSVILASAFAVGVSAGPPYRYEPEKFTCRPKKGILSQWVSLLYQVQHNITFACEEATPVPTTLISEEHGLMVCAENMTPEECEANPAPLSAFLPGATKEWVTGDSVLTGLKISVPESQYPANAKSFRVGCRHNTKTGNTCMLTIHVEPRDPAVERQEARCSYTENSTLPKIFVTKDSNTMTLACGPHGAPMPESYTENYCSTPDTCDEKPFTSVIPGYLSKWFFGDPKSPLGARVRIPPEQIPSSPQINYFGCTGPTEGEGPKYNCTVPVPLGGGDPSEGSRPGGGSGGGKRGGGQGGGGSLAGFDFRQGSARHSLPSRMALSASALLAMTALAY | glycan array binding signal (z-score) | Gal(a1-4)Gal(b1-4)Glc | 0.631
same | glycan array binding signal (z-score) | Gal(a1-4)Gal(b1-4)GlcNAc | -0.049
same | glycan array binding signal (z-score) | [14] | 0.487
same | glycan array binding signal (z-score) | [38] | -0.207
same | glycan array binding signal (z-score) | Gal(b1-4)Glc6S | -0.35
